This is an account of results in the supplement of paper PMC5949888.

Most values lie at the floor of the assay. Slopes are relative: functional sequences can read slightly below zero. Where only a bound is given, the exact number is not on record here.

The subject of the series is Saccharomyces cerevisiae PS128 hsf1 delta, HSF1(1-493) fusion. Nature of the series: growth estimate (transactivation domain function in HSF1 fusion, heat-shock survival) (a.u. (slope of normalised read count over time)); higher = stronger growth at 37°C, i.e. more transactivation activity. Conditions: library: random library.
As to SPSGGCEGSMIGDLSLAL, the growth estimate was below -0.25.

For the substance YRAVYWNKKRTGPLGGGSHG, the growth estimate is below -0.25.

In the case of LID, the growth estimate was below -0.25.

For IYLRTSDRRFLFTWRVVPAF, the growth estimate is below -0.25.

On to SSKGVRRGIQGSYRGFGNQG, for which the growth estimate is below -0.25.

Turning to KTLFPK, the growth estimate was below -0.25.

Take NTESHG: the growth estimate is below -0.25.

For EQDLLYESLTADLNRHWGID, the growth estimate was below -0.25.

Turning to AEKWGRSSRAPCPHLLLMAI, the growth estimate is below -0.25.

On to LSR, for which the growth estimate is below -0.25.

For ESLQSNSAVVNYTLCKSRIK, the growth estimate is below -0.25.

Consider KFRTPEDVNGPRPARRQYAA, for which the growth estimate is below -0.25.

On to PRVYHKGSIQGCWSQGIRPD, for which the growth estimate was below -0.25.

With IVIS, the growth estimate was below -0.25.

Regarding KPGPLCAAGSSTNLLVTAIV, the growth estimate was below -0.25.

For the substance QAGPRRARSTGRQNSATRGF, the growth estimate was below -0.25.

As for MVAANGVSGSSSADRGILCN, the growth estimate is below -0.25.

RLLQRRGWARSACLFDQSDP: the growth estimate is below -0.25.

As to VLLE, the growth estimate is below -0.25.

Regarding KFSSYVRRSRV, the growth estimate was below -0.25.

Consider DPPPIGSVM, for which the growth estimate is below -0.25.

As for YVSLRRACVNTFNSAQA, the growth estimate was below -0.25.

Turning to TVPPPSVVL, the growth estimate was below -0.25.

Take NVDRPQT: the growth estimate is below -0.25.

As to LDRLWQRARGRSYLHCLAQL, the growth estimate is below -0.25.

MTAAAGKFRALHEILSRP: the growth estimate was below -0.25.

Turning to VRYRIKNSVLGVNGISHRA, the growth estimate is below -0.25.

As for CSLGSMDTERTRRQ, the growth estimate is below -0.25.

For the substance PTQSESSAPRVLPGPGTQGP, the growth estimate is below -0.25.

EPALDGV: the growth estimate was below -0.25.

With NVIAGS, the growth estimate was below -0.25.

As for WRNLSLL, the growth estimate was below -0.25.

On to CPNAACSFAPTLTRENCGRH, for which the growth estimate was below -0.25.

Consider GNLNAMLKAYLAPSPNNTDP, for which the growth estimate was below -0.25.

With FESVRPSGVLSDLGQAGVFV, the growth estimate is -0.231.

As to SKRHCVLTFSREPIHLYLPY, the growth estimate is below -0.25.

On to TRGQHEVPPSEGCGL, for which the growth estimate is below -0.25.

For the substance RPGGEHRMLQRTWETVSLRL, the growth estimate is below -0.25.

VGPFATVSCERGRPCPGYTM: the growth estimate was below -0.25.

Take VSKPLISTDRKLYVKLSAWR: the growth estimate is below -0.25.

In the case of DPLRVMKTVSLRCANPVIGI, the growth estimate was below -0.25.

GCEYYYRSGSVPTRS: the growth estimate was below -0.25.

As for PPCSPH, the growth estimate is below -0.25.

Take AEREAAR: the growth estimate was below -0.25.

Consider HVWFGPGYGFCG, for which the growth estimate is below -0.25.

Take CPPDRMAMLHSIWRHTGFEA: the growth estimate is below -0.25.

GLYDVYIHR: the growth estimate is below -0.25.

Take TVR: the growth estimate was below -0.25.

On to KLSTPAARVTGVSTHSLR, for which the growth estimate was below -0.25.

As for GFVLVAGSKKKREKTHQ, the growth estimate was below -0.25.

Take GIGSLWGCLACAGPTLLLSV: the growth estimate was below -0.25.

For KRSSDARDIGRSCREAGITY, the growth estimate was below -0.25.

In the case of SLGCRLGGSESSRDIQDLNP, the growth estimate was below -0.25.

Regarding QAREKDELPYPQAWGTRVLA, the growth estimate is below -0.25.

For LFPRKHAGRVAMLGIHTWVS, the growth estimate is below -0.25.

Regarding DLFDKMLDELGSYPS, the growth estimate is -0.13.

Take PGGIIRSLGSCNWHGMVPRM: the growth estimate is below -0.25.

Regarding VGLCIAVRTAGGGTGIQCSR, the growth estimate was below -0.25.

For the substance CRFVRHRI, the growth estimate is below -0.25.

RVGIICNGVKTAYKGVRERA: the growth estimate was below -0.25.

As to LHGVCRAVRGGRVF, the growth estimate is below -0.25.

With RHKLTGDVINA, the growth estimate is below -0.25.

Regarding SIFMESW, the growth estimate was below -0.25.

VLGDSLRCMIRST: the growth estimate was below -0.25.

On to FCGSSAVTRFQPTPGWKDRE, for which the growth estimate is below -0.25.

As for SANVQAILTGRLRTASH, the growth estimate was below -0.25.

TGRGLTKH: the growth estimate was below -0.25.

For LRKAISLRPI, the growth estimate is below -0.25.

For GLANGTVAPGPVLIH, the growth estimate was below -0.25.

As for QALKTRIGCAGYTDLV, the growth estimate was below -0.25.

As to TFMSPEGPPVVGPSSTVIKS, the growth estimate was below -0.25.

Consider GMRGERIGATLSGQI, for which the growth estimate was below -0.25.

For SDAPS, the growth estimate is below -0.25.

As for SDRLPYCGVVPVNVTTRIQG, the growth estimate was -0.226.

Turning to STRTNSLADIQGLQPRTSGI, the growth estimate was below -0.25.

On to GNLKGSLSSKLDHPEGMMGR, for which the growth estimate is below -0.25.

GIAG: the growth estimate was below -0.25.

Turning to RAQEDFQNLRVMVCARVPWV, the growth estimate was below -0.25.

Regarding FQGGVLRLVFQALTGLSHTS, the growth estimate was below -0.25.
